# Values quoted from earlier work, collected in paper PMC2725292 (PLoS ONE, 2009).
# Assays:
# [1] = target: recombinant human 5-HT3A receptors; conditions: read-out: IC50 clozapine, recombinant human 5-HT3A receptors; previously reported, ref [5]; cited from earlier work
# [2] = target: recombinant mouse 5-HT3A receptors; conditions: read-out: IC50 clozapine, recombinant mouse 5-HT3A receptors; previously reported, ref [23], [24]; cited from earlier work
compound,measurement,setting,value
"CN1CCN(C2=Nc3cc(Cl)ccc3Nc3ccccc32)CC1 [clozapine, Clozapine]",IC50,[1],680 nM
same,IC50,[2],10 nM
